Literature values in patent US20080194024A1, “Culture of Non-Embryonic Cells at High Cell Density” (priority 2005, published 2008).
Certain results were filed several times, with different values. The other results are left out here. The source may hold further records. Results that share an entry do not match, cause unknown; they may come from other doses, times, organisms or constructs than stated.

Tested on: CDK1-cyclin B complex
Settings: read-out: IC50 CDK1-cyclin B complex; values marked a: L. Meijer et al., unpublished; cited from earlier work

In the case of `Cn1sc(=O)n(Cc2ccccc2)c1=O` [TDZD8], the IC50 is listed as > 100 µM and > 10 µM.
